The list shows a part of the results.

The chains behind the UniProt entries cited, without tags or fusion partners.
UniProt Q0JBA9, entry or part of it: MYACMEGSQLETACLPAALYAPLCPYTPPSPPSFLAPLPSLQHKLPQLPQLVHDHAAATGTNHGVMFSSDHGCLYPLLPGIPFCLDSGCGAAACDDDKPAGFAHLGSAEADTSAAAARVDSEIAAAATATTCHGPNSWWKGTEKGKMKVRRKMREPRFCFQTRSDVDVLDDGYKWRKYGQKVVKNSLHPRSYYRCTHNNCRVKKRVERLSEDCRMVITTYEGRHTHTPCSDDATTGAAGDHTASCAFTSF

This experiment has as its target OsWRKY34 (Oryza sativa, UniProt Q0JBA9 1-250). Kind of experiment: protein-binding microarray (RPBM); PBS, 2% BSA, 51.3 ng/ul salmon testes DNA, 50 uM zinc acetate, 200 nM TF, 25 C, 1 h; high values mean tight binding. To be noted: protein: recombinant; tags: N-terminal polyhistidine and DsRed monomer fusion (pET32a); label: CyDye5-dUTP incorporated in the synthesized complementary strand; 3' TTTTT single-stranded linker to array surface; dsDNA, one strand shown. In short, it runs like this: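 Per-feature fluorescence intensity (arbitrary units), read on an Axon 4000B scanner, is the binding signal. Transcription factors carrying an N-terminal polyhistidine tag and DsRed fusion were expressed in E. coli BL21-CodonPlus and purified on Ni–NTA. A custom Agilent array, made double-stranded by primer extension with Cy5-dUTP and blocked with 2% BSA, was incubated with 200 nM protein in PBS, 2% BSA, salmon testes DNA and 50 µM zinc acetate at 25 °C for 1 h and then washed.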
Take “TGTCCGCCATTGCTTTCGTTTCCTCTTCATGCGATGCGAGCGGAGTCACCTAGTGCAG”: the binding signal is 9520 fluorescence intensity (a.u.).
With “TTGCCCTTAATGTTGATCTCTCACTCTCAGCTTTCCACGACGGAGTCACCTAGTGCAG” the figure was 8680 fluorescence intensity (a.u.); with “CGTGCCCGTGCCCGTGCCCCGCCCGCCCGCCCGCGTGCCGCGGAGTCACCTAGTGCAG”, 8210 fluorescence intensity (a.u.).
With “ACCAGTACTAGCGAGGTGTTTTGAAACATTTTCTTTTACGCGGAGTCACCTAGTGCAG” the figure was 8460 fluorescence intensity (a.u.); with “GAAAAGACCTGCAAAGGGTGCTGTTGCACGTGCTTTGTTCCGGAGTCACCTAGTGCAG”, 8710 fluorescence intensity (a.u.); with “GGGAGGAGACGAGGGGTAATATGTCTGGTTTGAATGCATTCGGAGTCACCTAGTGCAG”, 9410 fluorescence intensity (a.u.).
With “GAGCATCGCCGCGCCCCACATGCGGAGCTCCGCCCCAAACCGGAGTCACCTAGTGCAG” the figure was 8310 fluorescence intensity (a.u.); with “TGGCCTGTTACGTTGTATATTAAAATCTTGCTCTCTTCTACGGAGTCACCTAGTGCAG”, 8650 fluorescence intensity (a.u.); with “CGCGCCACCACTTTCACCCCTTGATCGATCACGCCAATTACGGAGTCACCTAGTGCAG”, 9340 fluorescence intensity (a.u.).
As for “ACGTTGTTGTACACTTTATTATGTATGGCGTGATAAATTTCGGAGTCACCTAGTGCAG”, the binding signal was 10100 fluorescence intensity (a.u.).
The same measure for “GCCCCACCTGTCACCCACACGTACCCTGAGGCTGTCAGATCGGAGTCACCTAGTGCAG”: 8790 fluorescence intensity (a.u.); for “CCGAGTCTACTCCCGTTCAACTTCGAGCACCTGACGCTACCGGAGTCACCTAGTGCAG”: 8030 fluorescence intensity (a.u.); for “GGGGCGATTTTTTTTTTTTTTTAGAATTGCGAGATAGGGGCGGAGTCACCTAGTGCAG”: 10700 fluorescence intensity (a.u.).
In the case of “GAATGTTTTTCTGCATACCTGTCGTTGTTTTTAACTGTTGCGGAGTCACCTAGTGCAG”, the binding signal was 8110 fluorescence intensity (a.u.).
On to “AGGTGATCTCGGTGGTGGTTGTGGCGGTTAACTCCTTCTTCGGAGTCACCTAGTGCAG”, for which the binding signal was 10100 fluorescence intensity (a.u.).
With “AAATATCTTCTCGATCGGTCTACAGTTCTGTGGGTGGGGACGGAGTCACCTAGTGCAG” the figure was 12800 fluorescence intensity (a.u.); with “ATCACATGTAGGACTTCATTGTTTCGCTTATTGACGGAATCGGAGTCACCTAGTGCAG”, 8270 fluorescence intensity (a.u.); with “GCTTTGAGATGCCTTTGTCTTTTTGGATTGCTAGAGAACACGGAGTCACCTAGTGCAG”, 8780 fluorescence intensity (a.u.).
Take “ATATCTATAACTTTTATTTTAGTCATTTCTTCATCCGACACGGAGTCACCTAGTGCAG”: the binding signal is 9000 fluorescence intensity (a.u.).
The same measure for “GTCCTAAAGTACTTATTGTGTCCGGTTTTGGTTAGTTAAGCGGAGTCACCTAGTGCAG”: 12500 fluorescence intensity (a.u.); for “ACCTTCTTTGTTGTTTGATTTCTGTTGGTCCCTAGCTGATCGGAGTCACCTAGTGCAG”: 13300 fluorescence intensity (a.u.); for “GCGAGTAGGTGGGGCGGGCGTTGCCGCCGGTGGCCGTCGACGGAGTCACCTAGTGCAG”: 8490 fluorescence intensity (a.u.).
On to “ACGTGTCTATTACCATACTTTATGCTTAGAAATTTCTAGTCGGAGTCACCTAGTGCAG”, for which the binding signal is 11200 fluorescence intensity (a.u.).
With “CCCAACCTCCCGCCGCCGCCGCCGCCGCCGCATCCGCATGCGGAGTCACCTAGTGCAG” the figure was 10000 fluorescence intensity (a.u.); with “TTTTATACTATTCCCTCCGTTTCAGGTTAACATTTTGACTCGGAGTCACCTAGTGCAG”, 8190 fluorescence intensity (a.u.).
With “TCAGTGCGAGAGCAAGGCAAGTCATGCAATACGTTTGACCCGGAGTCACCTAGTGCAG” the figure was 8640 fluorescence intensity (a.u.); with “TGCGTCCCTCTTCCTTCATTCTCCTGACGCCTAGGGCCCACGGAGTCACCTAGTGCAG”, 8280 fluorescence intensity (a.u.); with “GCCGTGTTTTAGTGTTCTTTCTAGCTTATTTACCAAATCACGGAGTCACCTAGTGCAG”, 10000 fluorescence intensity (a.u.).
For “CTTTTGCTTTATCTTGCTTGACTCTCTGGTTTGTCATGTGCGGAGTCACCTAGTGCAG”, the binding signal is 11100 fluorescence intensity (a.u.).
Take “AATCTCTTCTGACATTCGGTCAAACGTTCGATATATATAACGGAGTCACCTAGTGCAG”: the binding signal is 9910 fluorescence intensity (a.u.).
“GGTGGCGGGCGGAGGCGGGAGGGAGGTGACATGGATGGTCCGGAGTCACCTAGTGCAG”: the binding signal was 8780 fluorescence intensity (a.u.).
“TGCTCGGGACTATTATATTGTAGACTCATTTAACTGAACTCGGAGTCACCTAGTGCAG”: the binding signal was 8070 fluorescence intensity (a.u.).
With “CCTCATCCGCTGCTCTGCTCCCACCATTGCTGCTCTCTCTCGGAGTCACCTAGTGCAG” the figure was 17700 fluorescence intensity (a.u.); with “CACATTTGCCTTTTGACTTTTCAACCGCAAGTCCGCAACCCGGAGTCACCTAGTGCAG”, 10100 fluorescence intensity (a.u.); with “GGCCAGCTGATCGATCGATCTCATTCCATAAGCAATGTATCGGAGTCACCTAGTGCAG”, 8100 fluorescence intensity (a.u.).
With “ACCGAACATACCCCACAACATCCAAAATGGCTACATGATTCGGAGTCACCTAGTGCAG” the figure was 8180 fluorescence intensity (a.u.); with “TCCCACCACCACACAAATCCACGCCCGCACTACTGCCACCCGGAGTCACCTAGTGCAG”, 9120 fluorescence intensity (a.u.); with “GCATTGATAGCATCAACAGTTTTCTTGCGGACCCAGCTCACGGAGTCACCTAGTGCAG”, 8360 fluorescence intensity (a.u.).
As for “GGTTGAATCAAATTGTTCCTCTGTTACACTTACACATCATCGGAGTCACCTAGTGCAG”, the binding signal is 11700 fluorescence intensity (a.u.).
With “TATTTGTTGTAAGGTGGGGAGGGTTGAGATTTTGACGTGCCGGAGTCACCTAGTGCAG”, the binding signal is 10400 fluorescence intensity (a.u.).
With “CCCACATCAAAACCTTGAATTTTCACAGTTTCTTGCATTTCGGAGTCACCTAGTGCAG” the figure was 9890 fluorescence intensity (a.u.); with “CGTCGACCTCACCGGCGCCGCATCCACGTCAAGCCGCGACCGGAGTCACCTAGTGCAG”, 8410 fluorescence intensity (a.u.).

For the origin of these results see paper PMC7819943, “Rice protein-binding microarrays: a tool to detect cis-acting elements near promoter regions in rice”.
